These are yes or no findings as the source states them, for the method shown. In cells and extracts the contact can be indirect. Some results given as binding are weak or reduced against the parent protein; the word gives no strength.
Target: butyrylcholinesterase (human (endogenous in serum)) (UniProt P06276)
Test: co-IP; fraction 12 of the iodixanol density gradient of human serum; 10 µg mouse anti-BChE monoclonal antibody 3E8 immobilised on AminoLink Plus Coupling Resin (Pierce Co-IP Kit); overnight at 4 °C; washed two times with 200 µL IP Lysis/Wash Buffer; eluate identified by mass spectrometry; quenched resin without antibody as control

Amino acid sequences for entries named in this document (tags omitted). Residues count along the entry.
UniProt P06276, residues 29-602: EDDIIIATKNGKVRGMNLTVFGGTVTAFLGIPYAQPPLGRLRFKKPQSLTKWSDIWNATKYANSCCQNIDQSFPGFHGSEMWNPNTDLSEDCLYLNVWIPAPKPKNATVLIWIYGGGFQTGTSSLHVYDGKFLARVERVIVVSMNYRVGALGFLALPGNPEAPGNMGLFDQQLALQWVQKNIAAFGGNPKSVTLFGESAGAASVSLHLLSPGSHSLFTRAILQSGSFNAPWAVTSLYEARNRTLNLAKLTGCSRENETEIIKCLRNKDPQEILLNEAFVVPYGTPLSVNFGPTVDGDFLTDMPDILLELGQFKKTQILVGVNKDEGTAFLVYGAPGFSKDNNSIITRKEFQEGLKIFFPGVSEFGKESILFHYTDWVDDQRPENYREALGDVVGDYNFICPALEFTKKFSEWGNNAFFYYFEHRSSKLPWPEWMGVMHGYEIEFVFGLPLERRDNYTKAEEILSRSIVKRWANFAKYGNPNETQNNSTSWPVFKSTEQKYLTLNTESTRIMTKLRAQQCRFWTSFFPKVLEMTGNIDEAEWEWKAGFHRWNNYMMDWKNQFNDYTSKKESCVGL
UniProt P02768, residues 25-609: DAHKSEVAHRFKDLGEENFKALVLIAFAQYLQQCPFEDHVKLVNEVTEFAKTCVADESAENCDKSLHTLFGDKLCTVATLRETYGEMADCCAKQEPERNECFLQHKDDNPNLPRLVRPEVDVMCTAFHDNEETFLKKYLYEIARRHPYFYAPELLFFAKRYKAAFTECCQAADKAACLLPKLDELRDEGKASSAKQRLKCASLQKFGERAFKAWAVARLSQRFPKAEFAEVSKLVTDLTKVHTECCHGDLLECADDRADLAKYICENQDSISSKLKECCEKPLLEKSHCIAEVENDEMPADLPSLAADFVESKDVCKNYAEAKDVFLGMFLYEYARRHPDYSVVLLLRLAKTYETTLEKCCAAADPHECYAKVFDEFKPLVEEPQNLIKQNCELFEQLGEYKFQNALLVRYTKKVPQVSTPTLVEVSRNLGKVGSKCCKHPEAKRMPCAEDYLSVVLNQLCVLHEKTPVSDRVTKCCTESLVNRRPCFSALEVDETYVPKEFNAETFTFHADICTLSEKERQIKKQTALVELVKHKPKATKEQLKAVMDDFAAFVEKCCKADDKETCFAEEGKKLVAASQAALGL

Question: How did the binding turn out when “serum albumin (from UniProt P02768 25-609)” was run?
Answer: The binding was “binds”.

— article PMC8508650
